For one test, the target named is T1, HA-tagged mGBP5 (mouse) (UniProt Q8CFB4).
T1 sequence: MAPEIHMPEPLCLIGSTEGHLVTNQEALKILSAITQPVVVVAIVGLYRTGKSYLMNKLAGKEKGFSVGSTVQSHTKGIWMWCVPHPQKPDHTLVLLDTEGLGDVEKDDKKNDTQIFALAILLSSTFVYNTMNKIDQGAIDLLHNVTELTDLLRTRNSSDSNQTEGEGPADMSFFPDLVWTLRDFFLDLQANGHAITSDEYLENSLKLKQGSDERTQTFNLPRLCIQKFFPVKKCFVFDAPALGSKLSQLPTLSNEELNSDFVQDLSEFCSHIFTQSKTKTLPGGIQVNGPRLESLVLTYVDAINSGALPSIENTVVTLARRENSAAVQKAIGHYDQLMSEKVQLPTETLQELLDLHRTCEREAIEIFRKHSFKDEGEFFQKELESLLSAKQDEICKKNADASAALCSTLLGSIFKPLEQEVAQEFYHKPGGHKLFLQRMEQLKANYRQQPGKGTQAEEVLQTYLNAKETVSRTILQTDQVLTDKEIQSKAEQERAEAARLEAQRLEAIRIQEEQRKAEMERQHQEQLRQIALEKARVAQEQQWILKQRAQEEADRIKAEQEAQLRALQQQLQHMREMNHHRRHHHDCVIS
Description: co-IP.

The target in another test is T2, HA-tagged mGBP2 (mouse) (UniProt Q9Z0E6).
T2 sequence: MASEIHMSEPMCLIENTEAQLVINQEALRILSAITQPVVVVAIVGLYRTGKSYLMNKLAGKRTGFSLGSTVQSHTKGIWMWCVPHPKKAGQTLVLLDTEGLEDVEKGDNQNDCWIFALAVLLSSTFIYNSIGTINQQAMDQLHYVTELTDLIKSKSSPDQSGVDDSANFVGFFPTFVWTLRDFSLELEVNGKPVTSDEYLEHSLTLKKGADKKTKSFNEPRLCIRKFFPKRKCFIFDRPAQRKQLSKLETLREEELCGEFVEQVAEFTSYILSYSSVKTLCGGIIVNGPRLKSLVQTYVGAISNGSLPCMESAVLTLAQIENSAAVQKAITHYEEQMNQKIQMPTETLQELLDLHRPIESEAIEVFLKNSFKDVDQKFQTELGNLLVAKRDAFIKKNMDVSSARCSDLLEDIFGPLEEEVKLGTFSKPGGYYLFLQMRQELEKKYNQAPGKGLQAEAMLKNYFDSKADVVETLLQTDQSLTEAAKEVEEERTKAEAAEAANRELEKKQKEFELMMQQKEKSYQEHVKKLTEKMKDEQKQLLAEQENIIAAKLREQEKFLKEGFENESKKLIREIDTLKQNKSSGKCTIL
Put plainly: co-IP.

This is an account of results in paper PMC3169597.

Results are given in words; binding and its absence hold for the method and conditions named. In cells and extracts the contact can be indirect. Some results given as binding are weak or reduced against the parent protein; the word gives no strength. Tags and fused reporters may be left off the sequences shown.

B1: FLAG-tagged mGBP1 wild-type protein (murine guanylate-binding protein 1) (protein, UniProt Q01514 1-589)
chain: MASEIHMSEPMCLIENTEAQLVINQEALRILSAITQPVVVVAIVGLYRTGKSYLMNKLAGKRTGFSLGSTVQSHTKGIWMWCVPHPKKAGQTLVLLDTEGLEDVEKGDNQNDCWIFALAVLLSSTFIYNSIGTINQQAMDQLHYVTELTDLIKSKSSPDQSDVDNSANFVGFFPIFVWTLRDFSLDLEFDGESITPDEYLETSLALRKGTDENTKKFNMPRLCIRKFFPKRKCFIFDRPGDRKQLSKLEWIQEDQLNKEFVEQVAEFTSYIFSYSGVKTLSGGITVNGPRLKSLVQTYVSAICSGELPCMENAVLTLAQIENSAAVQKAITYYEEQMNQKIHMPTETLQELLDLHRTCEREAIEVFMKNSFKDVDQKFQEELGAQLEAKRDAFVKKNMDMSSAHCSDLLEGLFAHLEEEVKQGTFYKPGGYYLFLQRKQELEKKYIQTPGKGLQAEVMLRKYFESKEDLADTLLKMDQSLTEKEKQIEMERIKAEAAEAANRALAEMQKKHEMLMEQKEQSYQEHMKQLTEKMEQERKELMAEQQRIISLKLQEQERLLKQGFQNESLQLRQEIEKIKNMPPPRSCTIL
On to B1, for which the binding entry with HA-tagged mGBP5 (mouse) and in the test with HA-tagged mGBP2 (mouse) was “binds” each time.
